# Measurements reported in PubChem BioAssay AID624202 (National Center for Advancing Translational Sciences (NCATS), 2012).
# In all, about 380,000 compounds went through this assay and about 4,000 (1.1%) were called active. The source calls these results inconclusive, neither active nor inactive. Calls come from the whole dose curve; as a rule, active = well fitted activation curve with a large enough effect; inconclusive = small, poorly fitted or top-dose-only effect; inactive = no such curve, though single readings can be large or run the other way.
# Test: qHTS Assay to Identify Small Molecule Activators of BRCA1 Expression; note: nearly all actives have a fitted effect of over 80% in size
# Details: MCF7-BRCA1-FFLuc reporter, luminescence, 48 h
# Potency is the fitted concentration of half-maximal effect.
row,Compound,Potency
1,CC(C)c1ccc(NC2CCN(C(=O)OC(C)(C)C)CC2)cc1,inconclusive: 2510 nM
